Results are given in words; binding and its absence hold for the method and conditions named. Some results given as binding are weak or reduced against the parent protein; the word gives no strength.

By UniProt entry, the sequences of proteins in these tests, tags left out. Residues count along the entry.
UniProt P14778, residues 18-332: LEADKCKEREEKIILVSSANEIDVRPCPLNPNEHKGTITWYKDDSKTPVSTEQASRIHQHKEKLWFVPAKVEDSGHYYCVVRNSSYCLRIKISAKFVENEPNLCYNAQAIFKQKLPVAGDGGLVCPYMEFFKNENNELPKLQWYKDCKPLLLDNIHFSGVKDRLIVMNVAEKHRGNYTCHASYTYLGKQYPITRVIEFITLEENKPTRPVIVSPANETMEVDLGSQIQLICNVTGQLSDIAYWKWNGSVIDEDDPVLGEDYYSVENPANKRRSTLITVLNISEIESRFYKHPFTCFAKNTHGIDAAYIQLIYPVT

Our source for the binding values is patent EP4724480A2.

The target in this test is human IL1R1 (human) (UniProt P14778). Kind of test: ELISA, IL1R1 protein (1 µM) coated, anti-Avi Tag detection, OD450.

B1: G2-VHH (VHH)
VHH: QVQLVESGGGLVQPGGSLRLSCAASGFTMGDYAIGWFRQVPGKEREGLSYSTKNGIKAYADSVRDRFTISRENAKNTVYLQMNSLKPEDTAVYYCAASTRFGGLLVSRYDYWGQGTQVTVSS
Turning to B1, the binding result was “binds”.
